For at least one compound, name, drawing or mass did not settle the structure.
Tests used:
[1] = test system: cAMP-dependent HCO3^− secretion; assay: Cyclic nucleotide (cAMP)-dependent HCO3^− secretion, lumen Cl^−/SCFA-free; set-up: species or system rat
Method: Stripped mucosal sheets were mounted into Ussing chambers (window area=0.3-0.5 cm^2, Physiologic Instruments, San Diego, Calif.). The mucosal side of tissue was bathed with an unbuffered HCO3^--free Cl^- Ringer solution (see Table 2 for detailed composition) circulated by a gas lift with 100% O2 while the serosal side was bathed with buffered Cl^- Ringer solution (pH 7.4) that contained 25 mM HCO3^- and gassed with 5% CO2/95% O2. Each side contained 3-5 ml of solution and the temperature of the solution was adjusted to and maintained at 37° C. by heated water-jacketed reservoirs. Experiments were performed under short-circuit conditions (Voltage-Current Clamp, VCC MC8; Physiologic Instruments, San Diego, Calif.) to maintain the transepithelial potentials at 0 mV, except for brief interruption at 20-second intervals for recording of open-circuit potential (VT, mV). Two types of approaches were used in the measurement of colonic HCO3^- secretion, namely, measurement of lumen pH or pH stat titration of net alkalinization by colonic mucosa. […] Radiometer Analytical, Villeurbanne, France). The amount of the acid delivered per unit time per surface area was used to quantitate HCO3^- secretion by the mucosa. Measurements were recorded continuously and mean values for consecutive 5 or 10 min periods were averaged. […] The short-circuit current (Isc) was measured in microamperes (μA) and converted into μEq/hr/cm^2. Tissue resistance (R, Ω cm^2) was calculated from Ohm's law. Colon segments were prepared and treated as in the secretagogue-induced HCO3^- secretion experiments except that they were bathed luminally with HCO3^--free Ringer solution that contained no isobutyrate and no Cl^-. Cyclic nucleotide-dependent HCO3^- secretion was calculated as […] (the difference between JHCO3 after minus JHCO3 before the addition of forskolin). When inhibitor was used, it was added at 30 min before […] or forskolin.

[2] = test system: HCO3^− secretion by colonic mucosa; assay: Secretagogue (forskolin)-induced HCO3^− secretion, lumen Cl^−-containing Ringer; set-up: species or system rat
Method: Stripped mucosal sheets were mounted into Ussing chambers (window area=0.3-0.5 cm^2, Physiologic Instruments, San Diego, Calif.). The mucosal side of tissue was bathed with an unbuffered HCO3^−-free Cl^− Ringer solution (see Table 2 for detailed composition) circulated by a gas lift with 100% O2 while the serosal side was bathed with buffered Cl^− Ringer solution (pH 7.4) that contained 25 mM HCO3^− and gassed with 5% CO2/95% O2. Each side contained 3-5 ml of solution and the temperature of the solution was adjusted to and maintained at 37° C. by heated water-jacketed reservoirs. Experiments were performed under short-circuit conditions (Voltage-Current Clamp, VCC MC8; Physiologic Instruments, San Diego, Calif.) to maintain the transepithelial potentials at 0 mV, except for brief interruption at 20-second intervals for recording of open-circuit potential (VT, mV).
Two types of approaches were used in the measurement of colonic HCO3^− secretion, namely, measurement of lumen pH or pH stat titration of net alkalinization by colonic mucosa. Except for limited experiments that require direct measurements of lumen pH (e.g., Experiment 1 and Experiment 3 below), luminal pH was maintained at 7.4 by the continuous infusion of 1 mM HCl or H2SO4 in case of lumen Cl^−-free conditions under the automatic control of a pH-stat system (Bi-burette TIM 856 pH meter; Radiometer Analytical, Villeurbanne, France). The amount of the acid delivered per unit time per surface area was used to quantitate HCO3^− secretion by the mucosa. Measurements were recorded continuously and mean values for consecutive 5 or 10 min periods were averaged. The rate of HCO3^− secretion (JHCO3) is expressed as μEq/hr/cm^2. The short-circuit current (Isc) was measured in microamperes (μA) and converted into μEq/hr/cm^2. Tissue resistance (R, Ω cm^2) was calculated from Ohm's law.
To examine CaSR effect on stimulated HCO3^− secretion, a model of forskolin-induced HCO3^− secretion was employed to mimic cholera toxin. The secretagogue forskolin was used to increase tissue cAMP content rapidly as cholera toxin's effect will not be seen for 1-2 hours. Tissues were divided and treated as in the basal HCO3^− secretion experiments except that after 15 to 30 min, when Isc and him had stabilized, forskolin was added to the serosal side of tissue for 15 to 30 min until Isc and JHCO3 had plateaued before R568 was then added to the serosal solution. Changes in Isc and JHCO3 during the 15-30 min period ensuing after the addition of the agonist were determined.

[3] = 500 nM, serosa, lumen Cl^−-containing

With `C=C[C@@]1(C)CC(=O)[C@]2(O)[C@@]3(C)[C@@H](O)CCC(C)(C)[C@@H]3[C@H](O)[C@H](OC(C)=O)[C@@]2(C)O1` [Forskolin] the Isc response ([1]; 500 nM serosa, lumen Cl^−-free) was “stimulated”, the “HCO3^− secretion (JHCO3)” value ([1]; 500 nM serosa, lumen Cl^−/SCFA-free) was “significantly stimulated” and the “non-HCO3^− portion of ΔIsc^FSK” value ([1]; FIG. 12, serosa-to-mucosa Cl^− gradient present) was 88%. For the same molecule, the “ΔJHCO3^FSK (net increase in JHCO3 induced by forskolin), mean” value ([1]; FIG. 12B, lumen Cl^−-free) was 0.2 μEq/hr/cm^2, the “ΔIsc^FSK (net increase in Isc induced by forskolin), mean” value ([1]; FIG. 12D, lumen Cl^−-free) was 1.5 μEq/hr/cm^2 and the “Isc response in the absence of serosal HCO3^−” value ([1]; no serosal HCO3^− (data not shown)) was “failed to stimulate or to inhibit”. The Isc response [2, 3] was “stimulated”, the JHCO3 response [2, 3] was “stimulated” and the “non-HCO3^− portion of ΔIsc^FSK” value ([2]; FIG. 9, Cl^− gradient absent) was 53%. For the same molecule, the “ΔJHCO3^FSK (net increase in JHCO3 induced by forskolin), mean” value ([2]; FIG. 9B, lumen Cl^−-containing) was 1.7 μEq/hr/cm^2 and the “ΔIsc^FSK (net increase in Isc induced by forskolin), mean” value ([2]; FIG. 9D, lumen Cl^−-containing) was 3.6 μEq/hr/cm^2.

— patent publication US20180153826A1, “MATERIALS AND METHODS FOR THE TREATMENT OF CYSTIC FIBROSIS” (UNIVERSITY OF FLORIDA RESEARCH FOUNDATION, INC., priority 2015, published 2018)
